# According to the supplement of paper PMC3334620:
# Whole data set: some 33,000 sequences, median “E-score (-0.5 to 0.5)” near -0.016, cut for the highest 2% near 0.3. Some of the results follow.
# Molecular target: T1, Yer184c (UniProt P39961)
# T1 sequence: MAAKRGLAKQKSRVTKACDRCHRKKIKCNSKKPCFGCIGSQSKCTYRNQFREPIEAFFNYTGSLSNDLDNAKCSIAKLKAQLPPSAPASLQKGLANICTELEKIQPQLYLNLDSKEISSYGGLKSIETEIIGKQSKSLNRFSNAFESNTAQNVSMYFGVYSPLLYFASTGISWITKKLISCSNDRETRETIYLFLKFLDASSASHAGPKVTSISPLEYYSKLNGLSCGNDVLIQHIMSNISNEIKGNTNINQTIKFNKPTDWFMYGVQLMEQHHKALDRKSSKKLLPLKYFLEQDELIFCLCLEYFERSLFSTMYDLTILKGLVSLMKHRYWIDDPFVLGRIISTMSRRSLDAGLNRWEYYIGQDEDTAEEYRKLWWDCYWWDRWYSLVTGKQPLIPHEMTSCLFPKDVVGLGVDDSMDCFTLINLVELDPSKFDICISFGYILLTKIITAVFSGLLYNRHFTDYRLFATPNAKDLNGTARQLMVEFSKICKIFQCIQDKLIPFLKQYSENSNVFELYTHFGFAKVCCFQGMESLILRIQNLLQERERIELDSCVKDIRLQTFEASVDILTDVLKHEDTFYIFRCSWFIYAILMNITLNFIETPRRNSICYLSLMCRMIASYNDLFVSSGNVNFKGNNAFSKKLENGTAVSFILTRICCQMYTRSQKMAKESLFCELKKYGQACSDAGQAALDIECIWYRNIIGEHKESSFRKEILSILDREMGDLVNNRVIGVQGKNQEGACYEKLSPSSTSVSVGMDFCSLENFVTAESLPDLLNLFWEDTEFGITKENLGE
# Experiment: PBM E-score (8-mer binding enrichment) (E-score (-0.5 to 0.5)); higher = stronger / more preferred TF binding
# Conditions: protein concentration: 100 nM; construct: GST-full length
# How it was run: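 GST-tagged yeast TFs (full-length or DNA-binding domain) were made by PURExpress in vitro transcription/translation and applied at about 100-200 nM to universal all-10-mer Agilent arrays. The arrays were made double-stranded by primer extension, on fresh or once-stripped slides. Bound protein was detected with fluorescent anti-GST, and scans were normalised with masliner. Each ungapped eight-base word, pooled with its reverse complement, received an E-score (modified Wilcoxon-Mann-Whitney statistic) from the Universal PBM Analysis Suite.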
row,Sequence,PBM E-score
1,CAGTGACG,0.0319
2,AGACAGGC,-0.135
3,AAGGTCCT,-0.162
4,ATACACGA,0.104
5,AATCGAGT,0.0164
6,CATACATA,0.0905
7,AATAACGA,0.068
8,CGATACCC,-0.221
9,AGTGTTCG,0.128
10,CCACCACC,-0.095
11,AATTGAAT,0.162
12,GTGACCCA,-0.0367
13,CTACCACC,-0.295
14,CGTGCACG,0.0593
15,ATCCGCGG,0.359
16,CGACCACC,-0.216
17,GATGTTTA,0.101
18,ATAATAGA,0.116
19,AATCTAGC,-0.217
20,TAGCATCA,-0.0197
21,TCCCAAAA,0.0904
22,GCATCAGC,0.0495
23,CTCCGTTC,0.239
24,CACAGACC,0.101
25,CAAGCAGG,-0.19

row,Sequence,PBM E-score
1,ACGGCCAA,0.192
2,CGTCTCGC,-0.133
3,AGCAACTC,-0.0433
4,AATCTGAA,-0.035
5,CCTTACGA,-0.0958
6,ATCTCTAA,0.153
7,TCATAACA,0.162
8,ATTTATCC,0.314
9,TAAAATTA,0.341
10,AGAACCCG,-0.0418
11,CACATAGA,0.0291
12,ACAGATCA,-0.0248
13,GGCGTGGA,-0.316
14,CACTCTCA,-0.0888
15,GAAATTAA,0.337
16,AAAGGCTC,-0.112
17,ACCTCTTA,0.0999
18,TCTCACAA,0.0454
19,CTGATTCA,0.0858
20,CAGTTGGA,-0.171
21,GACTATCA,-0.186
22,CGTCGATA,-0.0853
23,ATCAAAAC,0.169
24,ATCAGACC,-0.0234
25,GATGTAGC,-0.205

row,Sequence,PBM E-score
1,GGAAGTCC,0.0479
2,AATGAGCT,0.0628
3,ATCGCAAC,-0.0401
4,AATATGCA,-0.0575
5,ACTGGTCG,-0.161
6,GACAGCAA,0.0223
7,CGGTAAAG,0.314
8,CTGGACCC,-0.25
9,ACGATCTA,-0.216
10,ACTCAAGC,0.0281
11,GATCGCAC,-0.0597
12,CCCTGATA,-0.286
13,GAAGAGTC,-0.0527
14,CATTGCCC,-0.277
15,ATGTTAAA,0.146
16,ACGGATGG,0.0959
17,ACGAGGGC,-0.2
18,GCCTCATA,-0.0188
19,AGTAATCC,0.0412
20,AGGGCGAG,-0.233
21,GATTCCGA,0.33
22,AAACTAGT,0.0141
23,ATGAGCGC,0.088
24,CGCTCTTC,-0.217
25,AAAGATTA,0.226

# Reprinted at random: five records from the list
row,Sequence,PBM E-score
6,GACAGCAA,0.0223
3,ATCGCAAC,-0.0401
8,CGATACCC,-0.221
15,ATGTTAAA,0.146
18,GCCTCATA,-0.0188

# (further entries)

row,Sequence,PBM E-score
1,GGACAGAA,0.0525
2,ACTCGCCG,0.131
3,CATCCCGC,-0.0361
4,GTACACCA,-0.145
5,CAGACTCA,-0.0639
6,ATACGAGG,-0.142
7,AGCCGCGA,0.133
8,GGACGATA,-0.117
9,CGTCGCGC,-0.102
10,CGTTCAAC,0.117
11,CTTGCTGC,-0.16
12,GATGCAAC,-0.132
13,ACCGTGAG,-0.158
14,CTAGATCA,-0.183
15,TTAAGGAA,0.141
16,ACACGAAG,0.157
17,AGGAAAGG,-0.078
18,TCGCCTAA,-0.00862
19,CCTAACAG,0.11
20,ACGTTATG,0.0299
21,CATGGCTA,-0.146
22,GCTTATTA,0.0913
23,AACTCGAA,0.0933
24,AGCTCATC,-0.196
25,GACGGGCA,-0.131

row,Sequence,PBM E-score
1,CGCAGTAC,-0.191
2,AGCGCTTC,0.0494
3,CAAAATGG,0.0666
4,CCCGAACG,0.127
5,TAACGGAA,0.298
6,ACCCGGGT,0.299
7,CACTTGGG,-0.151
8,ACATGGTG,-0.0796
9,AAGAGCAT,-0.17
10,ACGGGACC,-0.109
11,CTCGAGGA,-0.056
12,ATGGCAAG,-0.0609
13,AGTATCAG,-0.0309
14,AAATGTTC,0.057
15,ATTCCGCA,0.139
16,CTTTGAGA,0.175
17,AACCCATG,-0.0873
18,CCCCCTTC,-0.435
19,TGCCACAA,0.129
20,CAACATTC,-0.085
21,CGTTACGC,0.0345
22,CTAAAAGC,-0.052
23,ATAAGTGA,-0.0589
24,AATCAGGA,-0.0905
25,AGCTGCCC,0.034

row,Sequence,PBM E-score
1,AGCGTAGA,-0.068
2,GCCAATAC,-0.203
3,ATCACATG,-0.0204
4,ACAACGGA,0.314
5,GACCCGCC,-0.00184
6,CTGATCCC,-0.314
7,CTACATAG,0.0225
8,AGATGGCT,-0.162
9,AAGCTCAC,-0.0354
10,CCCCTCGG,-0.0411
11,ACCACGAC,-0.106
12,ATTCATTG,0.0281
13,GCTTGCGA,0.17
14,AAGATTGG,0.0314
15,GGCACGAC,-0.141
16,AAATTCTG,0.116
17,CAACTTCC,0.162
18,ACCTAGTG,0.0183
19,AGAGACTA,0.0621
20,CACAGCTC,-0.182
21,GCGCCATA,0.0461
22,AGTTTGCA,-0.0278
23,AAATGCAG,-0.203
24,TCTTGCCA,-0.206
25,TCAGGGAA,-0.106

row,Sequence,PBM E-score
1,CGTCGTAA,-0.193
2,CACAGATC,-0.0735
3,AATGGGTC,-0.184
4,CCGATCCC,0.0949
5,CTCTTCTC,-0.215
6,CCCAGGCG,-0.0497
7,CATTCACA,-0.066
8,ACTTGCTC,-0.224
9,ACCATAAT,-0.0165
10,CATGTTTA,0.107
11,CACAGTGA,-0.0981
12,AACGGTTC,0.0175
13,CATGTGGG,-0.263
14,AAAGACAA,0.167
15,ACCTGTTC,-0.0202
16,AGCACAAT,-0.0863
17,ACACCATC,-0.238
18,GTAATAAA,0.151
19,CCGGCAAA,0.374
20,GTCAGTTA,-0.0798
21,ACCGACGT,0.129
22,ATCTACTG,0.045

# Some of the entries so far, with bars between the fields.
row | Sequence | PBM E-score
13 | CTACCACC | -0.295
23 | ATGAGCGC | 0.088
19 | CCTAACAG | 0.11
22 | AGTTTGCA | -0.0278
22 | ATCTACTG | 0.045
